# Literature values in US9399662B2, “Concurrent chemotherapy and immunotherapy” (Duke University, priority 2005, dated 2016).
# For at least one compound, name, drawing or mass did not settle the structure.
# System: GBM
# Conditions: GBM patients; cited from earlier work
compound,measurement,value
Cn1nnc2c(C(N)=O)ncn2c1=O [temozolomide],time to progression (TTP),7 months
